The record followed here is paper PMC8233039.

No constants are given. Whether binding was seen depends on the method and setting. Binding seen in cells or lysates may run through a third protein. Some results given as binding are weak or reduced against the parent protein; the word gives no strength. Where a sequence is shown, tags or fusion partners need not be part of it.

For this test, the target named is T1, Flag-Chinmo (Chronologically Inappropriate Morphogenesis, 3X Flag-tagged) (D. melanogaster) (UniProt Q9VQ30).
T1 sequence: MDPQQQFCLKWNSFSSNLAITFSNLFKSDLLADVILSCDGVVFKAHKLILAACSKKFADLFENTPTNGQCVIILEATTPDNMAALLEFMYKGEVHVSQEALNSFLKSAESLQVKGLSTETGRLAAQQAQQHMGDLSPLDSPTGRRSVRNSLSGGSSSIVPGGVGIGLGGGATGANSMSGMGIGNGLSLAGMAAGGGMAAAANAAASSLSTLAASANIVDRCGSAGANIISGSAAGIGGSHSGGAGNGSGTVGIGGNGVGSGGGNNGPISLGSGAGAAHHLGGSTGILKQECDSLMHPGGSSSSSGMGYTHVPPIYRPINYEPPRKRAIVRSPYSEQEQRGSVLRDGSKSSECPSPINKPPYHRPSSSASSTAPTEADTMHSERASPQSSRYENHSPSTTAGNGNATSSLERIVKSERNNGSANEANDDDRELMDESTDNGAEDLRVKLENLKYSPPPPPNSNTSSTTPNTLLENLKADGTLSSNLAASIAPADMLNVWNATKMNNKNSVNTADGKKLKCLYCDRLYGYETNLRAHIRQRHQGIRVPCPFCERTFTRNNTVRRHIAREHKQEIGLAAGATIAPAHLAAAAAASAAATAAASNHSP
Nature of the test: co-IP; Kc167 cells transfected with Flag-Chinmo and Myc-dSir2, control (fed) and starvation conditions; lysate (Phospho Safe Extraction buffer, protease and deacetylation inhibitors) on anti-Flag M2 affinity gel 3 h at 4°C, washed with 50 mM Tris HCl pH 7.4, 150 mM NaCl, eluted with 3X FLAG peptide; western blot with Myc antibody. (A western blot detects proteins with antibodies after separation by electrophoresis.)

B1: Myc-dSir2 (Drosophila melanogaster Sir2, Myc-tagged) (enzyme, UniProt Q9VK34 1-823)
chain: MMENYEEIRLGHIRSKDLGNQVPDTTQFYPPTKFDFGAEILASTSTEAEAEAEATATTTEPATSELAGKANGEIKTKTLAAREEQEIGANLEHKTKNPTKSMGEDEDDEEEEEEDDEEEEEDDEEGITGTSNEDEDSSSNCSSSVEPDWKLRWLQREFYTGRVPRQVIASIMPHFATGLAGDTDDSVLWDYLAHLLNEPKRRNKLASVNTFDDVISLVKKSQKIIVLTGAGVSVSCGIPDFRSTNGIYARLAHDFPDLPDPQAMFDINYFKRDPRPFYKFAREIYPGEFQPSPCHRFIKMLETKGKLLRNYTQNIDTLERVAGIQRVIECHGSFSTASCTKCRFKCNADALRADIFAQRIPVCPQCQPNKEQSVDASVAVTEEELRQLVENGIMKPDIVFFGEGLPDEYHTVMATDKDVCDLLIVIGSSLKVRPVAHIPSSIPATVPQILINREQLHHLKFDVELLGDSDVIINQICHRLSDNDDCWRQLCCDESVLTESKELMPPEHSNHHLHHHLLHHRHCSSESERQSQLDTDTQSIKSNSSADYILGSAGTCSDSGFESSTFSCGKRSTAAEAAAIERIKTDILVELNETTALSCDRLGLEGPQTTVESYRHLSIDSSKDSGIEQCDNEATPSYVRPSNLVQETKTVAPSLTPIPQQRGKRQTAAERLQPGTFYSHTNNYSYVFPGAQVFWDNDYSDDDDEEEERSHNRHSDLFGNVGHNYKDDDEDACDLNAVPLSPLLPPSLEAHIVTDIVNGSNEPLPNSSPGQKRTACIIEQQPTPAIETEIPPLKKRRPSEENKQQTQIERSEESPPPGQLAAV
Turning to B1, the binding result is reported as “binds”.
